Amino acid sequences for entries named in this document (tags omitted). A change or cut given only in a name is not applied to a line headed by its entry.
UniProt Q9H2G2: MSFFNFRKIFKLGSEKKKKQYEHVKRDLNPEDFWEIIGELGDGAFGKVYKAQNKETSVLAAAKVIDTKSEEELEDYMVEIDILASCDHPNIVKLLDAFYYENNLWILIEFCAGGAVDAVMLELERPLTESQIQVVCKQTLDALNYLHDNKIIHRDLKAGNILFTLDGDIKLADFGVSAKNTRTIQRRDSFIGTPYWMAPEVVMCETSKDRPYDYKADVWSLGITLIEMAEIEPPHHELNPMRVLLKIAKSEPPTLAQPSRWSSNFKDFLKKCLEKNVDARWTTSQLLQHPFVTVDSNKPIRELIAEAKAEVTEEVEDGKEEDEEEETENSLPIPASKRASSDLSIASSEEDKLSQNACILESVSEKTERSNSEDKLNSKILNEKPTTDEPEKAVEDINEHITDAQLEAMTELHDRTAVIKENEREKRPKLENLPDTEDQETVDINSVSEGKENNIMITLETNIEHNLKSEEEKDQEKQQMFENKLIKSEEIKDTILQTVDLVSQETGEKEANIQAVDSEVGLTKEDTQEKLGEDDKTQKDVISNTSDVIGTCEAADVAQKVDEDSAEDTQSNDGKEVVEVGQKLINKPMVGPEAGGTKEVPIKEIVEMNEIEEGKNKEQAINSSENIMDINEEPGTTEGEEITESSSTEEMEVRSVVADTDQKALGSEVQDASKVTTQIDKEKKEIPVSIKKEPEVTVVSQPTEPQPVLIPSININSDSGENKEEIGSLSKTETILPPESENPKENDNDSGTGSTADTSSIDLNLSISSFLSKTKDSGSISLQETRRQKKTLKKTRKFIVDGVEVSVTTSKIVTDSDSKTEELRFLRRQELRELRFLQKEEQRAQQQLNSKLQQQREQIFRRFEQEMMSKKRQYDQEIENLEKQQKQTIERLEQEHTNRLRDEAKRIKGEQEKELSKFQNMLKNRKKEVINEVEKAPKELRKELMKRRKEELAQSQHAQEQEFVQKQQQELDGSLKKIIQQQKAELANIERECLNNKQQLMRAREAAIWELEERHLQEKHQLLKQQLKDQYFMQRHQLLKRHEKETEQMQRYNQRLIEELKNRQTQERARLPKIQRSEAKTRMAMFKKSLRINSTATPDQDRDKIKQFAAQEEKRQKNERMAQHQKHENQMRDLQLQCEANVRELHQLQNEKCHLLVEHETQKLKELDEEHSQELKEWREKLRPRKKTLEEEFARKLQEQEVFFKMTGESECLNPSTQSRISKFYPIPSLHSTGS

According to PubChem BioAssay AID514 (SGCOxCompounds, 2006):

Target: STE20-like serine/threonine-protein kinase (Homo sapiens) (UniProt Q9H2G2)
Assay: SLK binders by thermal stabilization, biophysical, purified human kinase, DSF (AID 514)
Settings: differential scanning fluorimetry Tm shift, at 10 µM, protein 2 µM, buffer 10 mM HEPES, pH 7.5, NaCl 150 mM, hits give high values

- Tm shift: 4.4 C
Compound: CCC(CO)Nc1ccc2ncc(-c3cccc(Cl)c3)n2n1 (stereo unspecified)
